From patent US10017480B2, “Compounds having a selective PDE4D inhibiting activity” (UNIVERSITÂ DEGLI STUDI DI GENOVA, priority 2014, dated 2018)

System: spatial object memory performance
Assay: OLT dose-response experiment
Assay type: in vivo
Conditions: mean (SEM)

Structure (SMILES): OC(CN1CCOCC1)Cn1ccc(-c2ccc(OC(F)F)c(OC3CCCC3)c2)n1 (centres unmarked) [XXIIa, 1-{3-[3-(cyclopentyloxy)-4-(difluoromethoxy)phenyl]-1H-pyrazol-1-yl}-3-morpholin-4-ylpropan-2-ol]
- e1 (mean exploration in T1) (0.0003 mg/kg): 28.51 (3.13) s
- e2 (mean exploration in T2) (0.0003 mg/kg): 25.91 (2.73) s
- e1 (mean exploration in T1) (0.001 mg/kg): 33.78 (2.82) s
- e2 (mean exploration in T2) (0.001 mg/kg): 29.07 (2.30) s
- e1 (mean exploration in T1) (0.003 mg/kg): 37.85 (4.62) s
- e2 (mean exploration in T2) (0.003 mg/kg): 35.82 (2.82) s
- e1 (mean exploration in T1) (0.01 mg/kg): 34.24 (3.12) s
- e2 (mean exploration in T2) (0.01 mg/kg): 30.32 (2.14) s
